{"source": "PubChem BioAssay AID504791 | Drosophila RNAi Screening Center, 2011", "screen": "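Factors in Argonaute-based small RNA production and activity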 (primary screen)", "cell system": "Drosophila S2-derived reporter cells", "reagents": "long dsRNA against Drosophila genes, about 150-250 ng dsRNA per well (siRNA assay); about 80-120 ng (miRNA assay)", "timing": "about 5 days (siRNA assay); about 4 days (miRNA assay)", "challenge": "copper sulfate induction of reporters: 25 µM (siRNA assay); 200 mM stated (miRNA assay), 1-2 days before reading", "measurement": "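Per-well ratio of Renilla over firefly light, expressed relative to that plate's average ratio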", "call rule": "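a well was a first-pass pick when its plate-scaled ratio rose above 1.5 (siRNA assay) or 1.6 (miRNA assay), or dropped below 0.6; a gene counted only if two separate dsRNAs agreed on retest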", "note": "In all, the deposit lists about 23,000 reagents; below is a random part of those that have a named target and a result. Over the whole deposit, 199 (0.86%) got an active call. 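Plate-scaled ratios behind the calls are not deposited; printed light signals are raw; many rows marked increased or decreased are still called inactive.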 No sequences are given here. Not given: the direction of the score."}
{"target":"NimC2 (GeneID 34818)","dsRNA":"DRSC01881","stable assay Renilla, run 1 (luminescence)":7759,"stable assay firefly, run 1 (luminescence)":3.22e5,"call":"inactive"}
{"target":"Teh3 (GeneID 50170)","dsRNA":"DRSC08537","stable assay Renilla, run 1 (luminescence)":6963,"stable assay firefly, run 1 (luminescence)":3.34e5,"call":"inactive"}
{"target":"chb (GeneID 43901)","dsRNA":"DRSC11469","stable assay Renilla, run 1 (luminescence)":6239,"stable assay firefly, run 1 (luminescence)":4.66e5,"call":"inactive"}
{"target":"CG14269 (GeneID 31312)","dsRNA":"DRSC17912","stable assay Renilla, run 1 (luminescence)":6223,"stable assay firefly, run 1 (luminescence)":3.34e5,"call":"inactive"}
{"target":"CG9114 (GeneID 32460)","dsRNA":"DRSC20155","stable assay Renilla, run 1 (luminescence)":6416,"stable assay firefly, run 1 (luminescence)":5.80e5,"call":"inactive"}
{"target":"CG12689 (GeneID 31676)","dsRNA":"DRSC17879","stable assay Renilla, run 1 (luminescence)":6982,"stable assay firefly, run 1 (luminescence)":3.44e5,"call":"inactive"}
{"target":"CG33090 (GeneID 34835)","dsRNA":"DRSC01908","stable assay Renilla, run 1 (luminescence)":7183,"stable assay firefly, run 1 (luminescence)":1.52e6,"call":"inactive"}
{"target":"Hmx (GeneID 42110)","dsRNA":"DRSC15884","stable assay Renilla, run 1 (luminescence)":8158,"stable assay firefly, run 1 (luminescence)":4.39e5,"call":"inactive"}
{"target":"Hmx (GeneID 42110)","dsRNA":"DRSC16706","stable assay Renilla, run 1 (luminescence)":8173,"stable assay firefly, run 1 (luminescence)":4.39e5,"call":"inactive"}
{"target":"Hmx (GeneID 42110)","dsRNA":"DRSC22799","stable assay Renilla, run 1 (luminescence)":4551,"stable assay firefly, run 1 (luminescence)":4.00e5,"call":"inactive"}

An excerpt from above, showing only “stable assay Renilla, run 1 (luminescence)”:
NimC2 (GeneID 34818) [DRSC01881] = 7759
Teh3 (GeneID 50170) [DRSC08537] = 6963
chb (GeneID 43901) [DRSC11469] = 6239

Continued:
{"target":"BobA (GeneID 50281)","dsRNA":"DRSC09889","stable assay Renilla, run 1 (luminescence)":6439,"stable assay firefly, run 1 (luminescence)":3.47e5,"call":"inactive"}
{"target":"CG7579 (GeneID 39714)","dsRNA":"DRSC10885","stable assay Renilla, run 1 (luminescence)":7950,"stable assay firefly, run 1 (luminescence)":3.54e5,"call":"inactive"}
{"target":"Pgm2b (GeneID 36649)","dsRNA":"DRSC05978","stable assay Renilla, run 1 (luminescence)":6998,"stable assay firefly, run 1 (luminescence)":3.68e5,"call":"inactive"}
{"target":"Nepl12 (GeneID 41172)","dsRNA":"DRSC16411","stable assay Renilla, run 1 (luminescence)":7860,"stable assay firefly, run 1 (luminescence)":4.30e5,"call":"inactive"}
{"target":"CG34461 (GeneID 5740547)","dsRNA":"DRSC10767","stable assay Renilla, run 1 (luminescence)":7468,"stable assay firefly, run 1 (luminescence)":5.21e5,"call":"inactive"}
{"target":"CG9257 (GeneID 35375)","dsRNA":"DRSC03173","stable assay Renilla, run 1 (luminescence)":6230,"stable assay firefly, run 1 (luminescence)":3.48e5,"call":"inactive"}
{"target":"CG6962 (GeneID 41436)","dsRNA":"DRSC16153","stable assay Renilla, run 1 (luminescence)":9124,"stable assay firefly, run 1 (luminescence)":4.28e5,"call":"inactive"}
{"target":"Drak (GeneID 32097)","dsRNA":"DRSC19778","stable assay Renilla, run 1 (luminescence)":4963,"stable assay firefly, run 1 (luminescence)":3.06e5,"call":"inactive"}
{"target":"Drak (GeneID 32097)","dsRNA":"DRSC23298","stable assay Renilla, run 1 (luminescence)":3935,"stable assay firefly, run 1 (luminescence)":3.11e5,"call":"inactive"}
